Test results: article PMC4989169

Biological target: T1, active MASP-3cf (catalytic fragment of active MASP-3 containing the CCP1-CCP2-SP domains) (human) (UniProt P48740)
T1 sequence: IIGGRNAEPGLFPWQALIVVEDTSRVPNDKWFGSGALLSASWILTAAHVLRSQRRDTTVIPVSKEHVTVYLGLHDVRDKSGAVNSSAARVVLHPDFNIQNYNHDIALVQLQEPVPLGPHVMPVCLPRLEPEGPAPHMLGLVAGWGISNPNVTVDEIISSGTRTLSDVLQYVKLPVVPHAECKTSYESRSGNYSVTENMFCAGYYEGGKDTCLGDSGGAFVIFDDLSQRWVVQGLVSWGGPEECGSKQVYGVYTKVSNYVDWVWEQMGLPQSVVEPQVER
Test: enzyme inhibition assay (equilibrium KI from residual activity, photometric); enzymes co-incubated with serial dilutions of the inhibitors for 2 h at room temperature; 20 mM HEPES, 145 mM NaCl, 5 mM CaCl2, 0.05% Triton X-100, pH 7.5; Z-Lys-SBzl substrate, read at 410 nm; both purified

## wild-type TFPI-D2 (second domain of human Tissue Factor Pathway Inhibitor-1) (domain or fragment)
  binding: no binding

These are yes or no findings as the source states them, for the method shown.
